In US20190153061A1:
No constants are given. Whether binding was seen depends on the method and setting. Some results given as binding are weak or reduced against the parent protein; the word gives no strength.

The chains behind the UniProt entries cited, without tags or fusion partners. Residues count along the entry.
UniProt Q02223, residues 1-54: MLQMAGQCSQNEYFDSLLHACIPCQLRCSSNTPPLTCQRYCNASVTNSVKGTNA

B1: BCMA-4NP binding domain as used in the competition and affinity assays (scFv)
scFv: QVQLVQSGAEVKKPGSSVKVSCKASGGTFSNYWMHWVRQAPGQGLEWMGATYRGHSDTYYNQKFKGRVTITADKSTSTAYMELSSLRSEDTAVYYCARGAIYNGYDVLDNWGQGTLVTVSSGGGGSGGGGSGGGGSGGGGSDIQMTQSPSSLSASVGDRVTITCSASQDISNYLNWYQQKPGKAPKLLIYYTSNLHSGVPSRFSGSGSGTDFTLTISSLQPEDFATYYCQQYRKLPWTFGQGTKLEIKR
B2: BCMA-4NP tool CAR (126021) (protein, not shown: a dimerising Fc or GST)
chain: B1 scFv
B3: BCMA-1 scFv (139100) (scFv)
scFv: QVQLVQSGAEVRKTGASVKVSCKASGYIFDNFGINWVRQAPGQGLEWMGWINPKNNNTNYAQKFQGRVTITADESTNTAYMEVSSLRSEDTAVYYCARGPYYYQSYMDVWGQGTMVTVSSASGGGGSGGRASGGGGSDIVMTQTPLSLPVTPGEPASISCRSSQSLLHSNGYNYLNWYLQKPGQSPQLLIYLGSKRASGVPDRFSGSGSGTDFTLHITRVGAEDVGVYYCMQALQTPYTFGQGTKLEIK
B4: BCMA-2 scFv (139101) (scFv)
scFv: QVQLQESGGGLVQPGGSLRLSCAASGFTFSSDAMTWVRQAPGKGLEWVSVISGSGGTTYYADSVKGRFTISRDNSKNTLYLQMNSLRAEDTAVYYCAKLDSSGYYYARGPRYWGQGTLVTVSSASGGGGSGGRASGGGGSDIQLTQSPSSLSASVGDRVTITCRASQSISSYLNWYQQKPGKAPKLLIYGASTLASGVPARFSGSGSGTHFTLTINSLQSEDSATYYCQQSYKRASFGQGTKVEIK
B5: BCMA-3 scFv (139102) (scFv)
scFv: QVQLVQSGAEVKKPGASVKVSCKASGYTFSNYGITWVRQAPGQGLEWMGWISAYNGNTNYAQKFQGRVTMTRNTSISTAYMELSSLRSEDTAVYYCARGPYYYYMDVWGKGTMVTVSSASGGGGSGGRASGGGGSEIVMTQSPLSLPVTPGEPASISCRSSQSLLYSNGYNYVDWYLQKPGQSPQLLIYLGSNRASGVPDRFSGSGSGTDFKLQISRVEAEDVGIYYCMQGRQFPYSFGQGTKVEIK
B6: BCMA-4 scFv (139103) (scFv)
scFv: QVQLVESGGGLVQPGRSLRLSCAASGFTFSNYAMSWVRQAPGKGLGWVSGISRSGENTYYADSVKGRFTISRDNSKNTLYLQMNSLRDEDTAVYYCARSPAHYYGGMDVWGQGTTVTVSSASGGGGSGGRASGGGGSDIVLTQSPGTLSLSPGERATLSCRASQSISSSFLAWYQQKPGQAPRLLIYGASRRATGIPDRFSGSGSGTDFTLTISRLEPEDSAVYYCQQYHSSPSWTFGQGTKLEIK
B7: BCMA-9 scFv (139108) (scFv)
scFv: QVQLVESGGGLVKPGGSLRLSCAASGFTFSDYYMSWIRQAPGKGLEWVSYISSSGSTIYYADSVKGRFTISRDNAKNSLYLQMNSLRAEDTAVYYCARESGDGMDVWGQGTTVTVSSASGGGGSGGRASGGGGSDIQMTQSPSSLSASVGDRVTITCRASQSISSYLNWYQQKPGKAPKLLIYAASSLQSGVPSRFSGSGSGTDFTLTISSLQPEDFATYYCQQSYTLAFGQGTKVDIK
B8: BCMA-11 scFv (139110) (scFv)
scFv: QVQLVQSGGGLVKPGGSLRLSCAASGFTFSDYYMSWIRQAPGKGLEWVSYISSSGNTIYYADSVKGRFTISRDNAKNSLYLQMNSLRAEDTAVYYCARSTMVREDYWGQGTLVTVSSASGGGGSGGRASGGGGSDIVLTQSPLSLPVTLGQPASISCKSSESLVHNSGKTYLNWFHQRPGQSPRRLIYEVSNRDSGVPDRFTGSGSGTDFTLKISRVEAEDVGVYYCMQGTHWPGTFGQGTKLEIK

Assays:
[1] = biological target: BCMA (BCMA substrate / Bio-BCMA, form not stated) (UniProt Q02223); experiment: competition assay, RU read-out
[2] = biological target: BCMA-Fc antigen (R&D Systems) (UniProt Q02223); experiment: flow cytometry of transduced SupT1 cells stained with BCMA-Fc
[3] = biological target: BCMA (BCMA substrate / Bio-BCMA, form not stated) (UniProt Q02223); experiment: panning on Bio-BCMA, ELISA for BCMA reactivity, then FACS of purified scFv

Binder | binding [3] | other results
B1 |  | binding [1]: binds
B2 |  | binding [2]: binds
B3 | binds | 
B4 | binds | 
B5 | binds | 
B6 | binds | 
B7 | binds | 
B8 | binds | 
